No constants are given. Whether binding was seen depends on the method and setting. Binding seen in cells or lysates may run through a third protein. These calls come from enrichment with a bait or labelling near it, and not all partners need be listed. Sequences can lack the tags named with a protein.

The labels stand for the following.
T1: VIVIPAROUS1/ABI3-LIKE (VAL1), HA-tagged (VAL1-HA) (Arabidopsis thaliana) (UniProt Q8W4L5)
T1 sequence: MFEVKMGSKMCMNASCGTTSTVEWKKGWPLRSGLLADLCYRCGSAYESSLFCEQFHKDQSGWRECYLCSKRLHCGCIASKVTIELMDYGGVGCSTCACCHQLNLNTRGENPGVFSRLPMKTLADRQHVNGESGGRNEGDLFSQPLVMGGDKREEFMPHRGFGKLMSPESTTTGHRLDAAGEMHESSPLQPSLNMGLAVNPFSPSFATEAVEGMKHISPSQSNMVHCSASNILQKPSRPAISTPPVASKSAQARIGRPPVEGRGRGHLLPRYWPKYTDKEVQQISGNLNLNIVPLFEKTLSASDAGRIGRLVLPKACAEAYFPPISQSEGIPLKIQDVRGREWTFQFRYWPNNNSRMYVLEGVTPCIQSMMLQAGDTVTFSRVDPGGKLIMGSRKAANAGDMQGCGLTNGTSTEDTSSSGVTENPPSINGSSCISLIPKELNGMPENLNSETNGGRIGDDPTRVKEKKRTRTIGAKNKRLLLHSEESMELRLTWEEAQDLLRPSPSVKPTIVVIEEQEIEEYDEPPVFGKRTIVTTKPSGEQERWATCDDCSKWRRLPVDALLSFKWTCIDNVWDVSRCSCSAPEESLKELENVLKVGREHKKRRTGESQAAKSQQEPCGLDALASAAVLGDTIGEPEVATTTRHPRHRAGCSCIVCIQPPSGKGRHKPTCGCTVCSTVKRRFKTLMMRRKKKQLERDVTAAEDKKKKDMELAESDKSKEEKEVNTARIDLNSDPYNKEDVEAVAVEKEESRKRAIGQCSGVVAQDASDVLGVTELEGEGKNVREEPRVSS

B1: BMI1B (protein, UniProt Q9M9Y4 1-421)
chain: MMIKVKKETMRACLSCSICDNILRDATTISECLHTFCRKCIYEKITEDEIETCPVCNIDLGSTPLEKLRPDHNLQDLRAKIFALKRRKVKAPGIVSLPGKRKERSISSLVVSTPMVSAQAGTTRRRTKAPTRKELRNGSLAERTVKKEESSGDELLESTSSPDTLNKFTQNKRQSKKSCKESISNKENKDGDEPWDSKMDWKPLNFLVEVANGTKPLKSSASQGSGSKSEHANVSRNQFQGSKTKTKNKKRKCKREDDKSNNGDPTTSETVTPKRMRTTQRKRSATTLGDSRNLPQPDESSAKQERRNGPVWFSLVASNDQEGGTSLPQIPANFLRIRDGNTTVSFIQKYLMRKLDLESENEIEIKCMGEAVIPTLTLYNLVDLWLQKSSNHQRFAALVGSSAKDFTMVLVYARKLPECNM
B2: BMI1A (protein, UniProt Q94AY3 1-420)
chain: MEGDMVAKVKRETVVACMTCPLCDKLLRDATTISECLHTFCRKCIYEKITEDEIESCPVCDIDLGGTPLEKLRPDHILQDLRAKLFPLKRKKERAPEVVSSISLPAKRKERSISSLVVSTPRVSAQAGTTGKRTKAATRKDVRGSGSFTKRTVKKEEEFGDDHVESASSPETLKKFTQNKRQSSYANPNQSLSNRRNKDVDEPWDSKLHLWKPLNFLVDVANGTKDPKSELGNASHNDVQGSKTKTKDHKRKCKLEEEISNNGDPTTSETATLKRTRRTRRKRSSTFGDSRIPLLPGAASLKQERRNGHVWFSLVASSNQEGEASLPQIPANYLRIRDGNIPVSFIQKYLMRKLDLKSEDEVEITCMGEPVIPTLQLHSLVDLWLETTSKHQRVAASIGSSAKEFVMVLVYSRKLPECNN
B3: RING1A (protein, UniProt Q9FKW0 1-522)
chain: MSVKNNSFSSAEIPDVADQPRDRFNPEATQDLQEKDETKEEKEGDEEVKHDEAEEDQEVVKPNDAEEDDDGDDAEEDEEEEVEAEEDEEAEEEEEEEEEEEEEEEDSKERSPSSISGDQSEFMEIDLGEIRKDVQCPICLGIIKKTRTVMECLHRFCRECIDKSMRLGNNECPACRKHCASRRSLRDDPKFDALIAALFTNIDSYEEEELAFHEDEMARNKQIQASIAQISQRQSEALVKRRSLGKEAAVLMRSPRIASGSRRRRNSRNMEQQNASEAHEDDDNDDNNNRGRDKDSSSDERGTEVRQKKRRKRSTSRSTQHPSSSGANKNNGNCADNDTEVYRDTKGISPGLVWNPEILAWGRGGTRSNTRHGNNTSGGSSKSVRNARVNKLVEYLRSSVDGSSVELDIHVKLVSLDTKCIPDLPQPYLCCRPTLLVKQLREFVALQIHLKTEEVELLVTRRRVGEDAAIENLPAVTPASAAASKDEMLSLEDNETLSRLKIDFISSHEQHLIIAYRKKQTE

The target in this test is T1, VIVIPAROUS1/ABI3-LIKE (VAL1), HA-tagged (VAL1-HA) (Arabidopsis thaliana). As to the kind of experiment: affinity purification with mass spectrometry; VAL1-HA as bait; crosslinked Arabidopsis seedlings (non-vernalized, 4 weeks cold, 4 weeks cold plus 7 days warm); Protein A beads coupled with HA antibody; in-gel digestion, nanoLC-MS/MS; compared with Col-HA negative controls.
As to B1, the binding result was “binds”.

Take B2: the binding entry was “binds”.

Turning to B3, the binding result was “binds”.

The values above are taken from publication PMC9492735.
